Measurements from US4264497A, “1,5-Benzothiazepine compounds” (Maruko Seiyaku Co., Ltd., priority 1978, dated 1981).
For at least one compound, name, drawing or mass did not settle the structure.

How the values were obtained:
[1] = test system: ulcer; test: Anti-ulcer activity, overall statement; format: in vivo; conditions: in words
[2] = test system: gastric secretion; test: Gastric secretion inhibitory activity, overall statement; format: in vivo; conditions: in words

SMILES: CN1CCN(C[C@H]2C(=O)Nc3ccccc3S[C@H]2c2ccccc2)CC1 (relative stereo) [Racemic Mixture, (±)-cis-2,3-dihydro-3-[(4-methylpiperazinyl)methyl]-2-phenyl-1,5-benzothiazepin-4(5H)-one]
- anti-ulcer activity in comparison with known anticholinergic agents [1]: potent
- gastric secretion inhibitory activity in comparison with known anticholinergic agents [2]: potent
